PubChem BioAssay AID1259308 – NCATS, 2017

- Aim: 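Candidate targets for better recombinant protein yield in mammalian cells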 (primary screen)
- System: human HEK293 embryonic kidney cells stably expressing firefly luciferase (HEK-CMV-Luc2-Hygro)
- Reagents: single siRNA against human genes, 0.8 pmol siRNA per well
- Duration: 72 h
- Measurement: 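Luciferase light (ONE-Glo) measured on one replicate plate set and viability (CellTiter-Glo) on the other, scaled to a negative control siRNA, with robust z-scores and luciferase per cell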
- Scale: total luciferase, z-score: higher = more reporter protein produced
- Rule for the call: 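Active when the median/MAD z-score for overall luciferase is greater than 3; a gene was taken forward for validation with new siRNAs if at least two of its three siRNAs passed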
- Meaning of the calls: active = raised luciferase; inactive = no rise
In all, the deposit lists about 59,000 reagents; below is a random part of them. Over the whole deposit, about 1,510 (2.6%) got an active call. 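Calls use total luciferase alone and ignore viability, so some active siRNAs may act by altering cell number.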 Reagents against one gene are numbered here. Further read-outs or replicates are left out here.

target,reagent,"total luciferase, z-score",Outcome
DMBT1L1,1,1.24,inactive
DMBT1L1,2,1.36,inactive
DMBT1L1,3,-1.05,inactive
FOXO4,1,-1.01,inactive
FOXO4,2,3.81,active
FOXO4,3,-0.511,inactive
STXBP6,1,-0.024,inactive
STXBP6,2,1.47,inactive
STXBP6,3,1.86,inactive
CUL5,1,0.792,inactive
CUL5,2,0.555,inactive
CUL5,3,-0.111,inactive
RPS14P3,1,0.679,inactive
RPS14P3,2,0.616,inactive
RPS14P3,3,-1.94,inactive
PSMD7,1,-1.3,inactive
PSMD7,2,0.2,inactive
PSMD7,3,-0.103,inactive
C21orf91,1,-2.44,inactive
C21orf91,2,1.3,inactive
C21orf91,3,1.91,inactive
FAM161A,1,0.294,inactive
FAM161A,2,0.327,inactive
FAM161A,3,-0.311,inactive
KLHL22,1,0.721,inactive
KLHL22,2,-0.299,inactive
KLHL22,3,-0.0794,inactive
NGF,1,-0.544,inactive
NGF,2,1.91,inactive
NGF,3,1.12,inactive
MRPS30,1,0.107,inactive
MRPS30,2,0.457,inactive
MRPS30,3,0.0531,inactive
EYA1,1,-1.13,inactive
EYA1,2,0.361,inactive
EYA1,3,0.27,inactive
CHN2,1,-0.618,inactive
CHN2,2,0.83,inactive
CHN2,3,1.2,inactive
LILRA2,1,2.4,inactive
LILRA2,2,-1.04,inactive
LILRA2,3,1.27,inactive
BTRC,1,-0.0406,inactive
BTRC,2,-0.431,inactive
BTRC,3,0.748,inactive
ZNF154,1,2.29,inactive
ZNF154,2,0.68,inactive
ZNF154,3,2.46,inactive
PPP1R16A,1,0.436,inactive
PPP1R16A,2,-0.147,inactive
PPP1R16A,3,-0.937,inactive
JAK2,1,3.57,active
JAK2,2,-1.36,inactive
JAK2,3,-0.447,inactive
LCE5A,1,0.968,inactive
LCE5A,2,4.32,active
LCE5A,3,-1.39,inactive
ST6GAL1,1,-1.06,inactive
ST6GAL1,2,-1.15,inactive
ST6GAL1,3,-0.372,inactive
LRRC20,1,-0.64,inactive
LRRC20,2,-0.455,inactive
LRRC20,3,-2.15,inactive
MCCC2,1,0.51,inactive
MCCC2,2,0.831,inactive
MCCC2,3,-0.234,inactive
NR2F1,1,0.57,inactive
NR2F1,2,0.0248,inactive
NR2F1,3,1.81,inactive
TTC19,1,1.15,inactive
TTC19,2,1.63,inactive
TTC19,3,1.82,inactive
CRABP2,1,-0.766,inactive
CRABP2,2,0.14,inactive
CRABP2,3,-1.39,inactive

Individual results from above.
Entry for JAK2 #3 under “Outcome”: inactive
For “total luciferase, z-score”, FAM161A #2 has 0.327
Entry for PSMD7 #1 under “total luciferase, z-score”: -1.3
For “total luciferase, z-score”, CUL5 #1 shows 0.792
RPS14P3 #1, total luciferase, z-score: 0.679
Entry of MRPS30 #3 in “Outcome”: inactive
